In the supplement of paper PMC10338343:
± gives the standard deviation. The list shows a part of the results, in another mix than the full data. Many entries were measured with a wide error. The list shows a part of the results.

What was measured:
[1] = tested on: MIWI (PIWIL1) piRISC loaded with L1MC piRNA (30 nt); experiment: pre-steady-state target cleavage rate (min^-1); higher = faster piRNA-guided slicing of the target; settings: guide: L1MC piRNA 5'p-UAACUAAAUACUAUGCAAGCUGUAGGUCCU
Method in brief: (§1)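 Using HEPES–potassium acetate buffer at 33 °C, 1 nM active affinity-purified piRISC with a single synthetic guide was mixed with 0.1 nM transcribed, DNA-blocked target RNA library for 0–8 or 0–960 min, with or without 500 nM GTSF1 partner protein. Uncleaved targets were sequenced and normalised to depth and to weakly complementary targets, and three trials were pooled with k3 capped at 0.0001 min^-1. A burst-and-steady-state fit gave the pre-steady-state cleavage rate.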

[2] = tested on: EfPiwi piRISC loaded with L1MC piRNA (26 nt); experiment: pre-steady-state target cleavage rate (min^-1); guide: L1MC piRNA 5'p-UAACUAAAUACUAUGCAAGCUGUAGG; MIWI and MILI are mouse PIWI proteins and EfPiwi is from a freshwater sponge; tags in brackets are library labels; higher = faster piRNA-guided slicing of the target
Method in brief: as §1

[3] = auxiliary factor: none (no GTSF1)
[4] = auxiliary factor: 500 nM Ephydatia muelleri Gtsf1
[5] = auxiliary factor: none (no Gtsf1)

Row | Sequence | pre-steady-state target cleavage rate [1, 3] | pre-steady-state target cleavage rate [2, 4] | pre-steady-state target cleavage rate [2, 5] | pre-steady-state target cleavage rate ([1]; auxiliary factor: 500 nM mouse GTSF1)
1 | UCCUGCUACACGUUGCAUAGUAUUUACAAA | 0.000641 ± 0.0086 | 0.000612 ± 0.0074 | 0.000365 ± 0.027 | 
2 | UCCUGGAUCAGCUUCCAUAGUAUUUUGUUA | 0.000229 ± 0.014 | 0.000802 ± 0.0069 | 0.000158 ± 0.037 | 
3 | UCCUGGAACAGCUUCGUUAGUAUUUAGUUA | 0.00213 ± 0.0023 | 0.000406 ± 0.0063 | 0.000147 ± 0.042 | 
4 | UCCUGGAUGUCCUAGCAUAGUAUUAAGUUA | 0.00104 ± 0.0053 | 0.000274 ± 0.0081 | 0.00012 ± 0.023 | 
5 | UCCUGGAUGAGGUUGCAUAGUAAUUAGUUA | 0.00206 ± 0.004 | 0.00522 ± 0.003 | 0.000699 ± 0.019 | 
6 | UCCUGGAUGAGCUUGCUAUGUAUUUACAAA | 0.000238 ± 0.012 | 0.000461 ± 0.0073 | 0.000309 ± 0.031 | 
7 | UCCUGGAUGAGGUUGCAUUGUAUUUAGUUA | 0.00204 ± 0.0053 | 0.00262 ± 0.0027 | 0.000514 ± 0.017 | 
8 | UCCUGGAUGUGCUUGCAUAGUAUUUUCUAA | 0.00234 ± 0.0031 | 0.00171 ± 0.0043 | 0.000202 ± 0.047 | 
9 | UCCUGGUACACCUUCCAUAGUAUUUAGUUA | 0.000904 ± 0.0091 | 0.00121 ± 0.0058 | 0.000223 ± 0.038 | 
10 | UCCUGGAUGACCUUGCAUAGUAUUUAGAAA | 0.00194 ± 0.0049 | 0.00114 ± 0.0042 | 0.000475 ± 0.015 | 
11 | UCCUGGAUGUCGUUGCAUAGUAAAUAGUUA | 0.00111 ± 0.0079 | 0.000353 ± 0.0071 | 0.000229 ± 0.038 | 
12 | UCCUCGAACAGCUUGCAUAGUAUUUUCAAA | 0.00296 ± 0.0031 | 0.00321 ± 0.0022 | 0.000406 ± 0.012 | 
13 | UCCUGGAUCACCAUGCAUAGUAUUUAGUUA | 0.00191 ± 0.0031 | 0.013 ± 0.0061 | 0.000907 ± 0.011 | 
14 | UCCUGGAUGUCGAAGCAUACUAUUUAGAUA | 0.000608 ± 0.014 | 0.0007 ± 0.009 | 0.000197 ± 0.028 | 
15 | UCCUGGAACAGCAUGCAUAGUAUUUUCAAA | 0.00132 ± 0.0047 | 0.00122 ± 0.0024 | 0.000103 ± 0.036 | 
16 | UCCUGGAUGUCGAACCAUAGUAUUUAGUUG [g2:g15:cont:t1G] | 0.000327 ± 0.013 | 0.000133 ± 0.028 | 0.000172 ± 0.036 | 
17 | UCCUGGAUGAGUUGCAUAGUAUUUAGUUA | 0.00178 ± 0.0023 | 0.00429 ± 0.002 | 0.000669 ± 0.011 | 
18 | UCCUGGAUGUCGAAGCAAACUAUUUAGUUA | 0.00044 ± 0.013 | 0.000232 ± 0.0091 | 0.000162 ± 0.047 | 
19 | UCCUGGAUGAGGAUGCAUAGUAUUUAGUAA | 0.00202 ± 0.0028 | 0.00177 ± 0.0025 | 0.000309 ± 0.029 | 

Part of the list above, set out differently.
Row,Sequence,"pre-steady-state target cleavage rate [1, 3]","pre-steady-state target cleavage rate [2, 4]","pre-steady-state target cleavage rate [2, 5]",pre-steady-state target cleavage rate ([1]; auxiliary factor: 500 nM mouse GTSF1)
12,UCCUCGAACAGCUUGCAUAGUAUUUUCAAA,0.00296 ± 0.0031,0.00321 ± 0.0022,0.000406 ± 0.012,
16,UCCUGGAUGUCGAACCAUAGUAUUUAGUUG [g2:g15:cont:t1G],0.000327 ± 0.013,0.000133 ± 0.028,0.000172 ± 0.036,

Remaining list, next part.

Row | Sequence | pre-steady-state target cleavage rate [1, 3] | pre-steady-state target cleavage rate [2, 4] | pre-steady-state target cleavage rate [2, 5] | pre-steady-state target cleavage rate ([1]; auxiliary factor: 500 nM mouse GTSF1)
20 | UCCUGCUACAGCUACGAUAGUAUUUACAAA | 0.000462 ± 0.015 | 0.000954 ± 0.0085 | 0.000288 ± 0.015 | 
21 | UCCUGGUACAGGAUGCAUAGUAUUUAGUAA | 0.00173 ± 0.003 | 0.00412 ± 0.002 | 0.000441 ± 0.016 | 
22 | UCCUGGAUCAGCUUCGAUAGUAUUUACAAA | 0.000763 ± 0.0083 | 0.00102 ± 0.0072 | 0.000109 ± 0.043 | 
23 | UCCUGCUACAGCUACGAUAGUAUUUAGUUA | 0.00159 ± 0.0029 | 0.0028 ± 0.0031 | 0.000882 ± 0.0061 | 
24 | UCCUGGAUGUCGUUGCAUAGUAUUUCAGUUA | 0.00118 ± 0.0071 | 0.00109 ± 0.0077 | 0.000605 ± 0.015 | 
25 | UCCUGGAUGUCGAUGCAUAGUAAUUAGAUA | 0.000772 ± 0.011 | 0.00156 ± 0.004 | 0.000201 ± 0.026 | 
26 | UCCUCCUACAGCUUGGUAAGUAUUUAGUUA | 0.00114 ± 0.0036 | 0.00379 ± 0.0034 | 0.000918 ± 0.0067 | 
27 | UCCUGCUACAGCUUCGAUAGUAUUUAGUAA | 0.00162 ± 0.0039 | 0.00315 ± 0.0026 | 0.000628 ± 0.0087 | 
28 | UCCUGCUACAGCUUGCAUAGUUAUUUCAAA | 0.000798 ± 0.0089 | 0.00134 ± 0.0046 | 0.000476 ± 0.016 | 
29 | UCCUGGAUGUCGAAGGUAAGUAUUUAGUUA | 0.000391 ± 0.017 | 0.000162 ± 0.021 | 0.000151 ± 0.052 | 
30 | UCCUGGAUGUCCUUGCAUAGUUAUUAGUAA | 0.000766 ± 0.0099 | 0.000529 ± 0.0083 | 0.000109 ± 0.067 | 
31 | UCCUGCUACAGCUUGCAUACAAUUUAGUUA | 0.00328 ± 0.0036 | 0.00307 ± 0.0028 | 0.000438 ± 0.01 | 
32 | UCCUGGAUGACCUUGCAUAGUAUUAAGUUA | 0.0028 ± 0.0037 | 0.003 ± 0.0051 | 0.000783 ± 0.015 | 
33 | UCCUGGAUGUCGAAGCAUAGUAUUUAGUUU [g2:g16:cont:t1U] | 0.00161 ± 0.0038 | 0.00204 ± 0.0033 | < 0.0001 | 
34 | UCCUGGAUGAGCUUGCCAUAGUAUUUAGUUA | 0.00194 ± 0.0043 | 0.0035 ± 0.0026 | 0.000737 ± 0.0095 | 
35 | UCCUGGAUGUGCUAGCUUAGUAUUUAGUUA | 0.00238 ± 0.0041 | 0.0024 ± 0.0057 | 0.000337 ± 0.024 | 
36 | UCCUGGAUGUCGUUGCAUAGUAUUAUAGUUA | 0.00131 ± 0.0059 | 0.00201 ± 0.0053 | 0.000226 ± 0.046 | 
37 | UCCUGGAUGUCGAAGCAUAGUAUAUUAGUUA | 0.00129 ± 0.0074 | 0.000242 ± 0.02 | < 0.0001 | 
38 | UCCUGGAUGUCGAACGUAUGUAUAUUAGUUA |  | 0.000289 ± 0.026 | < 0.0001 | 0.000135 ± 0.038
